Assay results reported in publication PMC11900812.

By UniProt entry, the sequences of proteins in these tests, tags left out.
UniProt Q92560: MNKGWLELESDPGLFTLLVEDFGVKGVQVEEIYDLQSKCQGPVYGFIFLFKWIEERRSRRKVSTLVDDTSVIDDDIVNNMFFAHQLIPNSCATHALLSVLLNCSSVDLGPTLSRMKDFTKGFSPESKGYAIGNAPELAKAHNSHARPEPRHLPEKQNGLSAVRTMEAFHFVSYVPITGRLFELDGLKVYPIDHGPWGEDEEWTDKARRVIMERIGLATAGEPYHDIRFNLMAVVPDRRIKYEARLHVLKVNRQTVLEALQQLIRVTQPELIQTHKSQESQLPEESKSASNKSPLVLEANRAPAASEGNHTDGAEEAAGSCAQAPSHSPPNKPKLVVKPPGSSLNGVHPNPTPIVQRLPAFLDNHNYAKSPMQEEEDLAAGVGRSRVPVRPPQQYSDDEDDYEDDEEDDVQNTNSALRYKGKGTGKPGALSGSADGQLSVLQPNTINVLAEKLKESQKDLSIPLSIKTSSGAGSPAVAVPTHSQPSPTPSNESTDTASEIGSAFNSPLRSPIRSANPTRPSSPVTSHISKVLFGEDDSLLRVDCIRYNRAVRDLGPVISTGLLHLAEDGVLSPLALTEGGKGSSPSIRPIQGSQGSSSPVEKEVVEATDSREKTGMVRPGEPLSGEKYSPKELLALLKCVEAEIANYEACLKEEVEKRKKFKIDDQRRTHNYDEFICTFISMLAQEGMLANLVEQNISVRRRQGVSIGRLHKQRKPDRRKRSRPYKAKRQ
UniProt P51617: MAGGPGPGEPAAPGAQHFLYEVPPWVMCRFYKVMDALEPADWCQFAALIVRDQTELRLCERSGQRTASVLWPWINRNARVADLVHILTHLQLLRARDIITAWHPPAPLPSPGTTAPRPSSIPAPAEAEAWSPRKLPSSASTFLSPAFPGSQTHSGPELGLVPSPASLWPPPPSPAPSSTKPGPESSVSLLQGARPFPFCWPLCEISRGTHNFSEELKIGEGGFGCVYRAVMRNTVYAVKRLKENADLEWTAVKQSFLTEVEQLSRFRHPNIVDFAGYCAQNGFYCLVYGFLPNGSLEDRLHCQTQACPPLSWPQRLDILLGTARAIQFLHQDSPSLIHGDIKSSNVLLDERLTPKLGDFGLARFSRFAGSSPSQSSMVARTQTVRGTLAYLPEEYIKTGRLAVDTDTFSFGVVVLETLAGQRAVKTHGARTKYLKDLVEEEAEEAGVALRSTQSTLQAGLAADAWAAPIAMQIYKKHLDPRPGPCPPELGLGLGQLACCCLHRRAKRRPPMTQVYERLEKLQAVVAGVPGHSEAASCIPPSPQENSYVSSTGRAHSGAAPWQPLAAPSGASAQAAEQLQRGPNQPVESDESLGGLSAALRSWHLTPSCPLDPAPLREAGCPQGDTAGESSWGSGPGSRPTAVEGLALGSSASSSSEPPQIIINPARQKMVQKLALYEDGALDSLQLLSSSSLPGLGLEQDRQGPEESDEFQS

Target: HA tagged BAP1 (human) (UniProt Q92560)
Test: affinity purification with mass spectrometry; HA tagged BAP1 overexpressed in 293T cells; co-immunoprecipitation and mass spectrometry of the interacting proteins

interleukin-1 receptor-associated kinase 1 (IRAK1), endogenous (from UniProt P51617 1-712)
binding: binds

Results are given in words; binding and its absence hold for the method and conditions named. In cells and extracts the contact can be indirect. Here binding means that the protein was enriched with, or labelled near, the bait; the list need not be complete.
